Results as given in paper PMC10070494, “WSSV exploits AMPK to activate mTORC2 signaling for proliferation by enhancing aerobic glycolysis”.
Construct, isoform or probe ends are uncertain for at least one entry.

System: rHIF1α DNA-binding domain (Marsupenaeus japonicus)
Assay: EMSA
Conditions: 1 and 3 μg rHIF1α, 0.1 μM probe; Chemiluminescent EMSA Kit (Beyotime), salt and pH not stated; competitor 10 min then biotin probe 20 min at 25 °C; native 6% polyacrylamide gel; recombinant protein; protein details: GST (pGEX-4T-2)

**Q.** Does “CAAATGACTAGAACGTGCGACATTAGTGAA (double strand) [HK-WT probe]” bind?
**A.** binds
